Assay: Optical characteristics (absorption/excitation spectra, fluorescence intensity ratio) in phosphate buffered solution of various pH values
Format: physicochemical
Method: All the measurements were performed in a 100 mM sodium phosphate buffered solution containing 0.1% DMSO as an auxiliary solvent.
For example, in the case of Compound 2 mentioned above, the value of the fluorescence intensity at 780 nm obtained with excitation at 750 nm relative to the fluorescence intensity at 780 nm obtained with excitation at 670 nm in an aqueous solution of pH 4 is slightly smaller than 2. The value of the fluorescence intensity at 780 nm obtained with excitation at 750 nm relative to the fluorescence intensity at 780 nm obtained with excitation at 670 nm decreases along with the increase of pH, and it becomes about 0.6 at pH 10. Thus, by measuring the fluorescence intensity ratio at 780 nm obtained with excitation at 670 nm and 750 nm, pH can be calculated. […]
Results of measurement of absorption spectra and excitation spectra of Compounds 1 to 5 in phosphate buffered solution of various pH values as well as ratios of absorbance at 750 nm or 725 nm to absorbance at 670 nm observed in the measurement and ratios of fluorescence intensity at 780 nm obtained by excitation with an excitation light of 750 nm or 760 nm to fluorescence intensity at 780 nm obtained by excitation with an excitation light of 670 nm observed in the measurement are shown in FIGS. 1 to 5. […]

For CN(C)CCN(C)C1=C(/C=C/C2=[N+](C)c3ccccc3C2(C)C)CCC/C1=C\C=C1\N(C)c2ccccc2C1(C)C [Compound 2], the “fluorescence intensity at 780 nm obtained with excitation at 750 nm relative to fluorescence intensity at 780 nm obtained with excitation at 670 nm” value (aqueous solution of pH 4) was “smaller than 2” and the “fluorescence intensity at 780 nm obtained with excitation at 750 nm relative to fluorescence intensity at 780 nm obtained with excitation at 670 nm” value (pH 10) was “about 0.6”.

Source: patent US8507677B2, “Fluorescent probe” (The University of Tokyo, priority 2007, dated 2013)
